Experimental data taken from publication PMC9442473, “Centriole growth is limited by the Cdk/Cyclin-dependent phosphorylation of Ana2/STIL” (The Journal of Cell Biology, 2022).
These are yes or no findings as the source states them, for the method shown. Blank lines part the entries; values can stand above or below the binder they belong to.

Experiments:
[1] = target: eAna2(∆CC)-mNG (Drosophila melanogaster) (UniProt Q9XZ31); assay: fluorescence correlation spectroscopy (FCS), cytoplasmic diffusion rate; point FCS in the cytoplasm of living syncytial embryos, nuclear cycle 12, 25.0-26.0°C; embryos with one copy of the mNG-tagged transgene and one copy of the untagged WT ana2 gene
[2] = target: T1, Asl-mNG (Drosophila melanogaster), Q9VNE4; assay: condition: ∼7–15 nM (average cytoplasmic concentration); fluorescence correlation spectroscopy (FCS), photon-count rate per molecule (CPM); point FCS in the cytoplasm of living syncytial embryos at the beginning of nuclear cycle 12, 25.0-26.0°C; CPM compared with monomeric (mNG) and dimeric (dNG) NeonGreen controls; settings: remark: other sources report otherwise
T1 chain: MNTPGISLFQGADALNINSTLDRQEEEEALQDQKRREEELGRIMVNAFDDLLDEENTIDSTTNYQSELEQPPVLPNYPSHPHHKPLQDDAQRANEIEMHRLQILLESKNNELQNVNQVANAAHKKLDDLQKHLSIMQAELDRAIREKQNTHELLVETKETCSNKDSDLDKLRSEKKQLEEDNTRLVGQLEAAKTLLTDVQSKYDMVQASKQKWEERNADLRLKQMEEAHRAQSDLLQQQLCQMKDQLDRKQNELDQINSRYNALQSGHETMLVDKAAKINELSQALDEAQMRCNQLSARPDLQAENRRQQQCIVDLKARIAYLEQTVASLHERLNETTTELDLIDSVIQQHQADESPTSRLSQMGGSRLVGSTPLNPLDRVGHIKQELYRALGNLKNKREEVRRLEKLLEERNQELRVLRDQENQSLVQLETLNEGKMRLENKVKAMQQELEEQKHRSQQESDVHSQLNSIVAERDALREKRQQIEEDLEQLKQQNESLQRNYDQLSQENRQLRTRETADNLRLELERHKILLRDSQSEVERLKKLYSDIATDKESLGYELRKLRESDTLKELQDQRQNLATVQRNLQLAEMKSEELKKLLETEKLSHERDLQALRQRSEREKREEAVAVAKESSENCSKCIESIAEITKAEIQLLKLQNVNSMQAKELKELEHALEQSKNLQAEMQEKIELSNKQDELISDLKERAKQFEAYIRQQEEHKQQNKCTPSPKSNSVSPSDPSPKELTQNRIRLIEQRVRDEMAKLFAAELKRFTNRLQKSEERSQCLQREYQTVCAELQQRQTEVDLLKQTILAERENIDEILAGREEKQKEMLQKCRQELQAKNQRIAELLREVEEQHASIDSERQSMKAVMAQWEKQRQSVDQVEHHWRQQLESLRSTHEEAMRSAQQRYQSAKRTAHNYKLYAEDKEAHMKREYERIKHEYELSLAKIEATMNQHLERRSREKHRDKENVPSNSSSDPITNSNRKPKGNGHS

[3] = target: T2, Sas-4-mNG (Drosophila melanogaster), Q9VI72; assay: as above; settings: remark: other sources report otherwise
T2 chain: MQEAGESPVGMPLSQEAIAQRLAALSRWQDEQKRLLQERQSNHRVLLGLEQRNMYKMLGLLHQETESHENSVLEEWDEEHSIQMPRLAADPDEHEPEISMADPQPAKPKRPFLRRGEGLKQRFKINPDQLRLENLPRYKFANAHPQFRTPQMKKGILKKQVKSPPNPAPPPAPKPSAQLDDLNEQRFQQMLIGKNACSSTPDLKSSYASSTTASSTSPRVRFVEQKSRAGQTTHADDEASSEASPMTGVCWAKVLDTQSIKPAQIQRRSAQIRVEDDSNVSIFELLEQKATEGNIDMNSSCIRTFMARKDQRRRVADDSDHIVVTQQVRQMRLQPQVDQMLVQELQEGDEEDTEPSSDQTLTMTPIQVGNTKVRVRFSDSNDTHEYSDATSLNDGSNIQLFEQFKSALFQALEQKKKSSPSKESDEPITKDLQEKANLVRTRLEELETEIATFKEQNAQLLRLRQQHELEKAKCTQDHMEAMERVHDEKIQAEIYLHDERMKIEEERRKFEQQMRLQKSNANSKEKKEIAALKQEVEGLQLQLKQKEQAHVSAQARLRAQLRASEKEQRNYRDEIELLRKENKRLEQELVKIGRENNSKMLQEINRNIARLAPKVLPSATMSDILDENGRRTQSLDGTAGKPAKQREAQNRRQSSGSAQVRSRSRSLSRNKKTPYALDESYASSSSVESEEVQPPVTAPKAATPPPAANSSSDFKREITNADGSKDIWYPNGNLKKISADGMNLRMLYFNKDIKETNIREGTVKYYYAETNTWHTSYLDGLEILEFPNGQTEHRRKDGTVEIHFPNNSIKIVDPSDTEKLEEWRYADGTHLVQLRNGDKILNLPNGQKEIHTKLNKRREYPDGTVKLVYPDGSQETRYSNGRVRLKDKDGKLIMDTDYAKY

[4] = target: T3, Sas-6-mNG (Drosophila melanogaster), Q9VAC8; assay: as above; settings: remark: other sources report otherwise
T3 chain: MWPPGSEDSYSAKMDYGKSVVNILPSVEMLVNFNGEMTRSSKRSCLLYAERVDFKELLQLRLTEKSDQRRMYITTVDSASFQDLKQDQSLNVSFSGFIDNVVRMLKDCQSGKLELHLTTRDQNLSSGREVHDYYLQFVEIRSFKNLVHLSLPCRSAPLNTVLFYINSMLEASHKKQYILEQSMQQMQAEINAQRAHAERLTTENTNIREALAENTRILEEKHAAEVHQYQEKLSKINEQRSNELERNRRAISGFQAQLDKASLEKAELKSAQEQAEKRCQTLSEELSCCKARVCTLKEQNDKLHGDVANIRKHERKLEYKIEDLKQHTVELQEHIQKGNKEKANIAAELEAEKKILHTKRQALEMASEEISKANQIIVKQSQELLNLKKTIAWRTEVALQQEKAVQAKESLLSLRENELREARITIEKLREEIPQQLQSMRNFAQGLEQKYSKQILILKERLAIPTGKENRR

[5] = target: T4, mNG-Sas-6 (Drosophila melanogaster), Q9VAC8; assay: as above; settings: remark: other sources report otherwise
T4 chain: T3 chain

binding [1]: no binding
B1: eAna2(∆CC)-mNG (protein, UniProt Q9XZ31)
chain: MFVPETEDMLPRLAPRPSAAVPMGHTNEIIGPTVPEVSILFGQPPQDPQMQPQQPNHAHQESSPRAAPTFASWKKQMLPRVNFSPILATELGPRTAPSSNSPCSSKEYQVMPRDRNYASDAQQTTNHMNCNAGGYNAEPKQQAYQSRRLSSSSNADVLTICAGTQTDPFNPSPPRKSLPQVVYSDIDVSNLANKPEAISKASSTTGTQCDILTTNQAGRRLSPIMQDYIAEEEEPLPPPQARVIPQFPSPRPHPPIAQSTGYRANTPQAKRIPQLAKPNTEKSMVMNELALKYLRQPVDELMKDMRLGASPKSPNPEPLRPIDNIGHAQSPNDISNASYKYLKKYRLLPEEQLEPVCPQSPMAATAPSPHIQLDLENIRNQPKLL

binding [2]: no binding
B2: Asl-mNG, Q9VNE4 1-994 (protein)
chain: T1 chain

binding [3]: no binding
B3: Sas-4-mNG, Q9VI72 1-901 (protein)
chain: T2 chain

binding [4]: no binding
B4: Sas-6-mNG, Q9VAC8 1-472 (protein)
chain: T3 chain

binding [5]: no binding
B5: mNG-Sas-6, Q9VAC8 1-472 (protein)
chain: T3 chain
